Values of other authors in patent US7585833B2, “Malodor covering perfumery” (Givaudan Fragrances Corporation, priority 2005, dated 2009).
Some results were stated once for a whole list of compounds, not compound by compound. At least one compound was matched to its structure with a doubt left.

Conditions: high flux and high air impact odorants; about 50 or less; cited from earlier work

## CCCOC(=O)CCC [propyl butyrate]
  odor detection threshold values: ≤ 50 parts per billion

## Dimethylcyclohex-3-ene-1-carbaldehyde
  odor detection threshold values: ≤ 50 parts per billion

## CCCCOC(=O)C(C)CCC (stereo not drawn) [butyl 2-methyl pentanoate]
  odor detection threshold values: ≤ 50 parts per billion
